Measurements from PubChem BioAssay AID1671190 (National Center for Advancing Translational Sciences (NCATS), 2021).
Values joined by “and” are separate entries in the source; they are usually repeats but may differ in a detail not shown here. Equal values may be shown once. Out of some 580,000 compounds screened, about 6,100 (1.1%) were called active. The shares of active, inactive and inconclusive entries below differ from those in the screen. Calls come from the whole dose curve; as a rule, active = well fitted inhibition curve with a large enough effect; inconclusive = small, poorly fitted or top-dose-only effect, or another doubt; inactive = no such curve, though single readings can be large or run the other way. Where the call is inconclusive, the potency comes from a doubtful curve fit.

The chains behind the UniProt entries cited, without tags or fusion partners. Where a name states a change or a piece, a line headed by the entry shows the natural chain unless it says otherwise.
UniProt P18054: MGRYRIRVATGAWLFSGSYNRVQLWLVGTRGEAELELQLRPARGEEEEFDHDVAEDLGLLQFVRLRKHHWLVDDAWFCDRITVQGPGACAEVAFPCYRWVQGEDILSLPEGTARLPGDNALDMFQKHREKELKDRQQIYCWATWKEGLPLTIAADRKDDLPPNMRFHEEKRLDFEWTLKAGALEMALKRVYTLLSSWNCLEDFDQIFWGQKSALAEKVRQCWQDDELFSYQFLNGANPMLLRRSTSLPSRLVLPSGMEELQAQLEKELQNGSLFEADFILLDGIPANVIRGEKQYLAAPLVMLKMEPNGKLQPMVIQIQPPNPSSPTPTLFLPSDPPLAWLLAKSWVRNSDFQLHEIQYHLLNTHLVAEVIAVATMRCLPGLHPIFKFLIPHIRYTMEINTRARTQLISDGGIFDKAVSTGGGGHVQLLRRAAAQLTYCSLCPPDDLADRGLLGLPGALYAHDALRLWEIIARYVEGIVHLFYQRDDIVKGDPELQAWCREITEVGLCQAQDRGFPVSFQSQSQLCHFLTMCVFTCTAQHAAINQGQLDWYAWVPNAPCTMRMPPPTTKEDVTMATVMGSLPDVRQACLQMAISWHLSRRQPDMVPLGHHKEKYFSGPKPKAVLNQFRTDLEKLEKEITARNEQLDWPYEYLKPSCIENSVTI

The compounds below were run against Polyunsaturated fatty acid lipoxygenase ALOX12 (Homo sapiens) (UniProt P18054) (assay: Primary qHTS assay for inhibitors of human arachidonate 12S-lipoxygenase (ALOX12): Round 2). Conditions: purified 12hLO, xylenol orange hydroperoxide absorbance; activity change, negative = inhibition: at 108 µM (top of the series) unless noted.
Procedure, shortened: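 Purified human 12hLO at 150 nM in 25 mM Hepes, 0.01% Triton X-100, pH 7.0, preincubated 15 min at room temperature with compound. Reaction started with 40 uM arachidonic acid, 30 min at room temperature. Hydroperoxide measured by Fe-xylenol orange, 573/405 nm absorbance ratio.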
% is set by controls: 0 for no effect and ±100 for the full control effect; potency is the fitted concentration of half-maximal effect.

SMILES | Potency | activity change, negative = inhibition
COc1ccc(C(C#N)=C2C=C(Cl)C(=NO)C=C2Cl)cc1 | inconclusive: 39.8 µM [inhibitor, partial curve, poor fit] | –
CC1CCCC(NC(=O)COC(=O)c2ccc([N+](=O)[O-])o2)C1C (stereo not given) | – | inactive: -15.7%
COc1cc(CN2CCN(S(=O)(=O)c3ccc(C)cc3)CC2)cc(OC)c1O | – | inactive: -24.1%
COc1cccc(NC(=O)CN(C)C(=O)CCC(=O)c2cc(C)sc2C)c1 | – | inactive: -4.08%
COC(=O)c1cn(NC(=O)C2CCCCC2)c(=O)c2ccccc12 | inconclusive: 63.1 µM [inhibitor, partial curve, poor fit] | –
C#CCn1c(S(=O)(=O)Cc2ccc(F)cc2)nc(-c2ccccc2)c1-c1ccccc1 | – | inactive: -4.15%
CC1C=CCC2C(=O)N(c3cccc(C(=O)NCc4ccccc4)c3)C(=O)C12 (stereo not given) | active: 31.6 µM | –
O=C1NC(Cc2ccccc2)c2nc3ccc(Cl)cc3c(=O)n2-c2ncccc21 (stereo not given) | – | inactive: -2.38%
COc1ccc(NC(=O)CCC(=O)c2cccs2)cc1S(=O)(=O)Nc1ccc(Cl)cc1 | – | inactive: -29.9%
COc1ccc(/C=C2/SC(=S)N(c3ccc(S(=O)(=O)Nc4nccs4)cc3)C2=O)cc1 | – | inactive: 437%
O=C(O)COc1ccccc1/C=N/NC(=O)CSc1nnc(SCc2ccc(Cl)cc2)s1 | – | inactive: -25.3%
Cc1cc(NC(=O)CSc2nnc(Cc3cccn3C)n2CCc2ccccc2)no1 | inconclusive: 126 µM [inhibitor, single point] | –
CC(C)C[C@@H](CN1CCC[C@@H]1CN1C(=O)C(=O)NC[C@@H]1Cc1ccccc1)N1C[C@H](Cc2ccc(O)cc2)N(CC2CCCCCC2)C(=O)C1=O | inconclusive: 50.1 µM [inhibitor, partial curve, poor fit] | –
O=c1[nH][nH]cc1C=Nc1ccccc1O | – | inactive: 8.95%
O=C(Nc1cc(Cl)ccc1O)C1CC(c2ccccc2Cl)=NO1 (stereo not given) | inconclusive: 112 µM [inhibitor, single point] | –
O=C1CC(SCCc2nc3ccccc3[nH]2)C(=O)N1c1ccc(F)c(Cl)c1 (stereo not given) | inconclusive: 89.1 µM [inhibitor, partial curve, poor fit] | –
CC(C)CSc1oc(-c2ccco2)nc1S(=O)(=O)c1ccccc1 | inconclusive: 39.8 µM [inhibitor, partial curve, poor fit] and inconclusive: 10 µM [inhibitor, full curve, poor fit] | –
O=c1oc(-c2ccncc2)cc2ccccc12 | inconclusive: 12.6 µM [inhibitor, full curve] | –
COC(=O)C1=C(C)N(Cc2ccccc2)C(=NCCCOC(C)C)N[C@H]1c1ccccc1 | inconclusive: 100 µM [inhibitor, partial curve, poor fit] | –
O=C(CCC(=O)Nc1nnc(C2CCCCC2)s1)NCc1ccccc1 | inconclusive: 112 µM [inhibitor, partial curve, poor fit] | –

SMILES | Potency | activity change, negative = inhibition
COC(=O)c1ccc(CNCc2ccco2)o1 | inconclusive: 44.7 µM [inhibitor, partial curve, poor fit] | –
COc1cccc(N2CCN(C(=O)C3CCCN(c4cnc5nccnc5c4)C3)CC2)c1 (stereo not given) | inconclusive: 50.1 µM [inhibitor, partial curve, poor fit] | –
CC(C)(C)c1ccc(C(=O)NC(=O)COC(=O)c2ccccc2)cc1 | – | inactive: 4.37%
Cc1cccc(N=Cc2[nH]c3ccc(Br)c(Cl)c3c2O)c1 | inconclusive: 50.1 µM [inhibitor, partial curve, poor fit] | –
COCCN=C1Sc2nc3ccc(C)cc3cc2CN1Cc1cccs1 | inconclusive: 39.8 µM [inhibitor, partial curve, poor fit] | –
O=C(NCc1cccc(Cl)c1)c1cnccn1 | – | inactive: -17.4%
COc1ccc(NC(=O)CSc2nc3c(oc4ccccc43)c(=O)n2-c2ccc(C)c(C)c2)cc1 | inconclusive: 89.1 µM [inhibitor, partial curve, poor fit] | –
CCn1nccc1-c1cc(C(=O)O)c2cccc(C)c2n1 | inconclusive: 44.7 µM [inhibitor, partial curve] | –
O=C(c1ccc(Cl)cc1)N1CC2(CCCN2Cc2ccc(C(F)(F)F)cc2)Cc2ccccc21 (stereo not given) | inconclusive: 79.4 µM [inhibitor, single point] | –
COc1ccc2sc(N(CCCN(C)C)C(=O)c3ccc(S(=O)(=O)N(C)C4CCCCC4)cc3)nc2c1 | inconclusive: 39.8 µM [inhibitor, full curve, poor fit] | –
COc1ccc(NC(=O)COC(=O)c2ccc3ccccc3n2)cc1OC | inconclusive: 35.5 µM [inhibitor, partial curve] | –
CC1CCc2c(sc3nc(C(C)(C)C)nc(N4CCN(C(=O)CCl)CC4)c23)C1 (stereo not given) | inconclusive: 39.8 µM [inhibitor, partial curve, poor fit] | –
COc1ccc(/C=C(\C#N)C(=O)Nc2ccccc2C(=O)O)c(OC)c1 | inconclusive: 56.2 µM [inhibitor, partial curve, poor fit] | –
O=C1CSC(c2cccs2)N1c1nncs1 (stereo not given) | inconclusive: 79.4 µM [inhibitor, partial curve, poor fit] | –
CCCN1CCC2(Cc3ccccc3CN(C(=O)CCCC(=O)O)C2)C1 (stereo not given) | inconclusive: 14.1 µM [inhibitor, partial curve] | –
O=C1CC2CCCC(C1)N2C(=O)c1ccc(Cl)cc1 | inconclusive: 22.4 µM [inhibitor, full curve, poor fit] | –
CCOC(=O)C1CCN(C(=O)c2cc(CN3C(=O)c4ccccc4C3=O)ccc2OCC)CC1 | inconclusive: 2.82 µM [inhibitor, full curve, poor fit] | –
Cc1nnc(N/N=C/c2c(O)n(-c3cccc(C(F)(F)F)c3)c(=O)c3ccccc23)[nH]c1=O | inconclusive: 44.7 µM [inhibitor, partial curve, poor fit] | –
CCOc1ccc(-c2[nH]ncc2Oc2cccc(OC)c2)c(O)c1 | inconclusive: 70.8 µM [inhibitor, partial curve, poor fit] | –
CC(C)c1ccc(C2N=C(N)Nc3nc4ccccc4n32)cc1 (stereo not given) | inconclusive: 44.7 µM [inhibitor, partial curve, poor fit] | –

Whole records from above:
COc1cccc(N2CCN(C(=O)C3CCCN(c4cnc5nccnc5c4)C3)CC2)c1 (stereo not given) in the list: Potency: inconclusive: 50.1 µM [inhibitor, partial curve, poor fit]
CCCN1CCC2(Cc3ccccc3CN(C(=O)CCCC(=O)O)C2)C1 (stereo not given) in the list: Potency: inconclusive: 14.1 µM [inhibitor, partial curve]
